This is one part of the list. This data set is noisy: repeats of one test often differ as much as different tests do.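 HEK293T cells were given each compound shortly before transfection with a reporter in which red mCherry is followed by the SARS-CoV-2 frameshift element and then GFP in the −1 frame, so GFP appears only after frameshifting.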
What follows are molecules tested on HEK293T (assay: percent viability (nuclei count) relative to control; higher = more viable cells). Conditions: 10 µM; 24 h.
With `CCOC(=O)C1=C(C)NC(CN(C)C)=C(C(=O)OCC)C1c1ccccc1/C=C/C(=O)OC(C)(C)C` (stereo not given) [teludipine] the percent viability was 336%. For `CCc1ccc(CCOc2ccc(CC3SC(=O)NC3=O)cc2)nc1` (stereo not given) [Pioglitazone], the percent viability was 161%. `CCN(CC)CCNC(=O)c1ccc(NC(C)=O)cc1` [acecainide] gave a percent viability of 152%. Molecule `CCOC(=O)OC(C)OC(=O)[C@@H]1N2C(=O)[C@@H](NC(=O)[C@H](N)c3ccccc3)[C@H]2SC1(C)C` (stereo not given in full) has a percent viability of 142%. With `COCC(=O)Nc1cc(Sc2ccccc2)ccc1N=C(NC(=O)OC)NC(=O)OC` [febantel] the percent viability was 226%. Work on `CC(=O)NCCCCCC(=O)O` [acexamic acid] yielded a percent viability of 336%. In the case of `O=C(O)C1=C(CSc2nnnn2CS(=O)(=O)O)CS[C@@H]2[C@H](NC(=O)[C@H](O)c3ccccc3)C(=O)N12`, the percent viability is reported as 266%. With `C[N+]1(C)CCC(OC(=O)C(O)(c2ccccc2)C2CCCC2)C1` (stereo not given) [glycopyrronium bromide] the percent viability was 138%. For `CO[C@H]1C[C@@H]2CC[C@@H](C)[C@@](O)(O2)C(=O)C(=O)N2CCCC[C@H]2C(=O)O[C@H]([C@H](C)C[C@@H]2CC[C@@H](O)[C@H](OC)C2)CC(=O)[C@H](C)/C=C(\C)[C@@H](O)[C@@H](OC)C(=O)[C@H](C)C[C@H](C)/C=C/C=C/C=C/1C` [Rapamycin], the percent viability was 179%. `CCC(C(=O)O)c1ccc(-c2ccccc2)cc1` (stereo not given) [xenbucin] showed a percent viability of 101%. `COc1ccc2cc([C@H](C)C(=O)O)ccc2c1` [Naproxen] gave a percent viability of 311%. Molecule `C1N2CN3CN1CN(C2)C3` [methenamine] has a percent viability of 153%. Work on `CCCCOC(=O)c1ccc(O)cc1` yielded a percent viability of 179%. Work on `Cc1cccc(C)c1NC(=O)/N=C1\CCCN1C` [xilobam] yielded a percent viability of 132%. `CO/N=C(\C(=O)N[C@@H]1C(=O)N2C(C(=O)OCOC(=O)C(C)(C)C)=C(/C=C\c3scnc3C)CS[C@H]12)c1csc(N)n1` showed a percent viability of 192%. With `CC(=O)OCC(=O)[C@@]1(OC(C)=O)[C@@H](C)C[C@H]2[C@@H]3C[C@H](F)C4=CC(=O)C=C[C@]4(C)[C@@]3(F)[C@@H](O)C[C@@]21C` the percent viability was 297%. In the case of `Cc1cc(O)cc(C)c1Cl` [chloroxylenol], the percent viability is reported as 193%. In the case of `CC(=O)Oc1cccc2c1C(=O)c1c(OC(C)=O)cc(C(=O)O)cc1C2=O` [diacerein], the percent viability is reported as 301%. For `CC1=C(C(=O)O)N2C(=O)[C@@H](NC(=O)[C@H](N)c3ccccc3)[C@H]2SC1`, the percent viability was 349%. `CCCCOCCOC(=O)c1cccnc1` [nicoboxil] gave a percent viability of 147%. Molecule `O=C(CCCN1CCN2Cc3[nH]c4ccccc4c3CC2C1)c1ccc(F)cc1` (stereo not given) [biriperone] has a percent viability of 432%. In the case of `CC(=O)O[C@H]1C[C@@]2(C)[C@@H](C[C@@H](O)[C@H]3[C@@]4(C)CC[C@@H](O)[C@@H](C)[C@@H]4CC[C@@]32C)/C1=C(\CCC=C(C)C)C(=O)O`, the percent viability is reported as 173%. `CCC[C@@H]1C[C@@H](C(=O)N[C@@H]([C@H]2O[C@H](SC)[C@H](O)[C@@H](O)[C@H]2O)[C@H](C)Cl)N(C)C1` was tested, and the percent viability was 89.3%. In the case of `CNC[C@H](O)[C@@H](O)[C@H](O)[C@H](O)CO`, the percent viability is reported as 38.9%. For `COc1c2ccoc2cc2oc(=O)ccc12`, the percent viability was 406%.

From the supplement of paper PMC8256030
